Measurements as given in PubChem BioAssay AID1347076 (National Center for Advancing Translational Sciences (NCATS), 2019).
Screen size: about 400,000 compounds; about 13,000 (3.2%) were called active. This list was built around the results that the source calls inconclusive (neither active nor inactive); the mix of calls is not that of the screen. Calls follow the shape of the dose curve; as a rule, active = well fitted cell-killing curve with a large enough effect; inconclusive = small, poorly fitted or top-dose-only effect, or effect the other way; inactive = flat fitted curve, though single readings scatter. A potency beside an inconclusive call is a rough fit, not a confirmed value. Some compounds were tested as several samples or in several runs, with calls that do not always agree.

Experiment: qHTS assay for MDR1-selective chemotherapeutics: Primary screen using the drug-selected MDR subline cells KB-V1; also: nearly all actives have a fitted effect of over 60% in size
Details: KB-V1 MDR cells viability, CellTiter-Glo, 72 h; activity change, negative = cytotoxicity: at 46.1 µM (top of the series)
Method in brief: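 Luminescent ATP read-out (CellTiter-Glo, 10 min) measures survival of drug-selected KB-V1 MDR cells after 72 h, 37 degrees C compound exposure. Medium: phenol-red-free DMEM, 10% FBS. Values from fitted concentration-response curves.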
% is scaled to controls: 0 for no effect and ±100 for the full control effect; potency is read from the fitted curve at half-maximal effect.

Row | SMILES | Potency | activity change, negative = cytotoxicity
1 | CCN1CC(CN(C)Cc2nc(-c3ccc(Cl)cc3)no2)CC1=O (centres undefined) | active: 16.4 µM | 
2 | Cc1ccc(Nc2cc(C(=O)NC3CCCC3)c3ccccc3n2)cc1C | inactive | 
3 | CS(=O)(=O)c1ccccc1-c1csc(N2CCC(C(N)=O)CC2)n1 | inactive | 
4 | Cc1cccc(C)c1NC(=O)c1ccc(-c2cc(F)ccc2F)o1 | inactive | 
5 | O=C(c1cc(C2CC2)nn1-c1ccccc1)N1CCN(S(=O)(=O)c2c(F)cccc2F)CC1 | inconclusive: 9.2 µM [cytotoxic, partial curve, poor fit] | 
6 | Cc1occc1C(=O)N1CCCC(CCC(=O)NCc2ccc(F)c(F)c2)C1 (centres undefined) | inconclusive: 18.4 µM [cytotoxic, partial curve, poor fit] | 
7 | O=C(N/N=C/c1ccc([N+](=O)[O-])o1)c1cc(-c2cccc(Br)c2)nc2ccccc12 | inconclusive: 22.4 µM [cytotoxic, single point] | 
8 | Cc1nn(C)cc1CN1CCCC(C(=O)c2ccc(-c3ccccc3)cc2)C1 (centres undefined) | inactive | 
9 | COc1ccc(CC(=O)Nc2cccc(-c3nnc(-c4ccc(C)cc4)o3)c2)cc1OC | active: 4.11 µM | 
10 | Cc1cc2c(cc1S(=O)(=O)N(C)c1ccccc1)n(C)c(=O)n2C | inconclusive: 9.2 µM [cytotoxic, partial curve, poor fit] | 
11 | COc1cccc(N(C(=O)CCl)C(C(=O)NCCc2ccccc2)c2cccs2)c1 (centres undefined) | inconclusive: 20.6 µM [cytotoxic, single point] | 
12 | CCCCN(C)C(=O)c1sc(=O)n(Cc2c(C)cccc2C)c1C | inconclusive: 8.2 µM [cytotoxic, partial curve] | 
13 | O=C(c1[nH]c(C(F)(F)F)nc1-c1ccccc1)N1CCCCC1 | inactive | 
14 | CCOC(=O)c1c(C)n(-c2ccccc2)c2ccc(OC(=O)c3ccccc3Cl)cc12 | inactive | 
15 | Cc1cc(C)c(C)c(S(=O)(=O)Nc2ccccc2C(=O)NCCCN2CCOCC2)c1C | inconclusive: 1.84 µM [cytotoxic, full curve] | 
16 | Cc1nc(-c2ccc(-n3nncc3-c3ccco3)cc2)cs1 | inconclusive: 20.6 µM [cytotoxic, single point] | 
17 | Cc1cccc(-c2c3c(=O)n(C)c(=O)n(C)c3cn2C(C)C)c1 | inconclusive: 23.1 µM [cytotoxic, single point] | 
18 | Cc1cccc(/C=c2\s/c(=C\C(=O)C(C)(C)C)[nH]c2=O)c1 | inconclusive: 16.4 µM [cytotoxic, partial curve] | 
19 | COC(=O)CC(c1ccc(C(C)C)cc1)n1cccc1 (centres undefined) | inconclusive: 18.4 µM [rising, partial curve, poor fit] | 
20 | CCOc1ccc(CCNC(=O)C2CCCN(c3nnc(C)c4c(C)n(-c5ccccc5)nc34)C2)cc1 (centres undefined) | inactive | 
21 | CN(CCNC(=O)c1cn(C)c2ccc(S(=O)(=O)N(C)C)cc2c1=O)CCc1ccccc1 | inconclusive: 6.51 µM [rising, full curve, poor fit] | 
22 | NC(=O)COC(=O)c1ccc(S(=O)(=O)N2CCCCCC2)cc1 | inconclusive: 20.6 µM [rising, single point] | 

Row | SMILES | Potency | activity change, negative = cytotoxicity
23 | CCN1CCCc2cc(CN(CCN3CCOCC3)C(=S)Nc3cccc(OC)c3)ccc21 | inactive | 
24 | COc1cccc(F)c1C(C[N+](=O)[O-])c1c(N)n(C)c(=O)n(C)c1=O (centres undefined) | inconclusive: 25.9 µM [cytotoxic, single point] | 
25 | CC(C)C(=O)C1=Cc2cccc([N+](=O)[O-])c2OC1N1CCOCC1 (centres undefined) | inconclusive: 20.6 µM [cytotoxic, single point] | 
26 | Cc1cc(C(=O)COC(=O)c2cccnc2Cl)c(C)n1-c1c(C)n(C)n(-c2ccccc2)c1=O | inactive | 
27 | O=C(NC1=NCCS1)c1cc(-c2ccc(-c3ccccc3)cc2)nc2ccccc12 | inconclusive: 16.4 µM [cytotoxic, single point] | 
28 | Cc1cccc(C(=O)NC(=S)NNC(=O)c2ccc(Cl)cc2)c1 | inconclusive: 9.2 µM [cytotoxic, partial curve, poor fit] | 
29 | C=CCN(c1ccccc1OC)S(=O)(=O)c1cccc(C(=O)OCC(=O)N2CC(C)OC(C)C2)c1 (centres undefined) | active: 4.11 µM | 
30 | O=C(Nc1ccc2c(c1)OCO2)c1cccc(S(=O)(=O)N2CCCC2)c1 | inconclusive: 23.1 µM [cytotoxic, single point] | 
31 | Cn1c(=NC(=O)CN2C(=O)C3CC=CCC3C2=O)sc2ccccc21 (centres undefined) | active: 5.17 µM | 
32 | COc1ccc(OCC(=O)Nc2cccc(-c3nc4ccccc4[nH]3)c2)cc1 | inconclusive: 20.6 µM [cytotoxic, single point] | 
33 | Cc1nnc(SCC(=O)Nc2sccc2C(N)=O)s1 |  | inconclusive: -23.4%
34 | COc1ccc(S(=O)(=O)N(CC(=O)NC2CC3CCC2C3)c2ccccc2OC)cc1 (centres undefined) | inconclusive: 20.6 µM [cytotoxic, partial curve, poor fit] | 
35 | Cc1cc(-c2ccc(C)c(S(=O)(=O)N3CCN(c4ccc([N+](=O)[O-])cc4)CC3)c2)on1 | inconclusive: 1.46 µM [cytotoxic, full curve] | 
36 | COc1cc(-c2noc(C)c2/C=C/c2ccc(C(=O)O)cc2)cc(OC)c1OC | inactive | 
37 | O=C(Nc1ncc([N+](=O)[O-])s1)c1ccco1 |  | inconclusive: -61.3%
38 | COc1cccc(CN(C)CC(=O)Nc2ccccc2C(C)C)c1 | inconclusive: 13 µM [cytotoxic, partial curve] | 
39 | O=C(CC1Nc2ccccc2NC1=O)Nc1ccccc1 (centres undefined) | inconclusive: 20.6 µM [rising, partial curve, poor fit] | 
40 | CCc1cc(=O)oc2c(C)c(OC(C)C(=O)NCCCN3CCOCC3)ccc12 (centres undefined) | inactive | 
41 | OCc1ccnc2c(O)cccc12 | inconclusive: 20.6 µM [cytotoxic, partial curve, poor fit] | 
42 | O=C(CSc1ccccc1C(=O)O)NC12CC3CC(CC(C3)C1)C2 | inactive | 
43 | Cc1cccc(C)c1NC(=O)CSc1nnc(-c2ccoc2C)n1CCc1ccccc1 | inconclusive: 20.6 µM [cytotoxic, single point] | 
44 | CCc1ccc(CNCCNC(=O)c2ccco2)cc1 | inconclusive: 29.1 µM [cytotoxic, partial curve, poor fit] | 

Part of the list above, as tab-separated lines:
Row	SMILES	Potency	activity change, negative = cytotoxicity
41	OCc1ccnc2c(O)cccc12	inconclusive: 20.6 µM [cytotoxic, partial curve, poor fit]	
42	O=C(CSc1ccccc1C(=O)O)NC12CC3CC(CC(C3)C1)C2	inactive	
43	Cc1cccc(C)c1NC(=O)CSc1nnc(-c2ccoc2C)n1CCc1ccccc1	inconclusive: 20.6 µM [cytotoxic, single point]	
44	CCc1ccc(CNCCNC(=O)c2ccco2)cc1	inconclusive: 29.1 µM [cytotoxic, partial curve, poor fit]	
